Test results from PubChem BioAssay AID2685 (National Center for Advancing Translational Sciences (NCATS), 2010).
Hit rate of the full screen: of about 320,000 compounds, about 2,100 (0.66%) were called active. Calls come from the whole dose curve; as a rule, active = well fitted inhibition curve with a large enough effect in the signal ratio, with a control signal flat (not every such curve was filed as active); inconclusive = small, poorly fitted or top-dose-only effect, or effect the other way, or a change in a side signal; inactive = flat fitted curve, though single readings scatter; the % refers to the signal ratio. Inconclusive means that the source gave no clear call. Potencies of inconclusive entries are doubtful fits and often do not repeat.

Assay: qHTS Assay for Lipid Storage Modulators in Drosophila S3 Cells
Conditions: BODIPY lipid droplet fluorescence, 18-24 h, cells fed with added oleic acid; lipid storage change, negative = inhibition: at 46.1 µM (top of the series) unless noted
Procedure, shortened: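 Drosophila S3 cells got compounds at several concentrations plus oleic acid (400 uM solution). Laser-scanning cytometry with 488 nm excitation read lipid droplets at 500-530 nm and cells at 575-640 nm. Percent activity was relative to 20 uM Triacsin C.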
% is set by controls: 0 for no effect and ±100 for the full control effect; potency is the fitted concentration of half-maximal effect.

Potency, inconclusive:
COC(=O)c1cccc(C(=O)Nc2cnc3ccccc3c2)n1 0.326 µM [activator, full curve, poor fit]
COc1ccc(C(=O)C2CCN(C(=O)Nc3ccccc3C)CC2)cc1 29.1 µM [activator, single point]
C/C(=N\NC(=O)c1cc(O)cc(O)c1)c1ccc(NC(=O)Cc2ccccc2)cc1 29.1 µM [activator, single point]
Cc1ccc(/C=N/NC(=O)c2c(C)nc3ccc(Br)cn23)cc1 13 µM [activator, partial curve, poor fit]
COc1ccc([N+](=O)[O-])cc1NC(=O)C(C)OC(=O)c1cccnc1Cl (centres undefined) 0.0041 µM [activator, full curve, poor fit]
COc1ccc(C(=O)Nc2ccncc2)c(OC)c1 9.2 µM [falling, partial curve, poor fit]
Cc1nn(CC(=O)NC2CCS(=O)(=O)C2)c(C)c1S(=O)(=O)N(C)C (centres undefined) 20.6 µM [activator, single point]
O=C1N(Cc2ccccc2)CCCC12CCCN(Cc1ccccc1)C2=O 5.8 µM [activator, full curve]
O=C(Nc1cc(S(=O)(=O)N2CCCCC2)ccc1N1CCOCC1)c1cc(=O)[nH]c2ccccc12 25.9 µM [falling, partial curve, poor fit]
COc1cc(C(=O)NCCCNc2ccc([N+](=O)[O-])cc2)cc(OC)c1OC 0.164 µM [activator, full curve, poor fit]
CCc1noc(C)c1C(=O)N1CCC(CCC(=O)Nc2cccc(C)c2)CC1 0.58 µM [falling, single point]
Cc1ccc(C(=O)CSc2ccccn2)cc1 4.61 µM [activator, full curve, poor fit]
CCCc1nnc(NC(=O)CCC(=O)N2CCN(Cc3ccc(F)cc3)CC2)s1 29.1 µM [falling, single point]
c1ccc2c(c1)[nH]c1nc3nncn3nc12 0.461 µM [falling, full curve, poor fit]
CN(C)c1ccc(N/C=C/C(=O)c2ccco2)cc1 23.1 µM [falling, single point]
O=C(CN1C(=O)NC(Cc2ccccc2)C1=O)Nc1ccc(F)c(Cl)c1 (centres undefined) 0.0046 µM [activator, full curve, poor fit]
O=C(Nc1ncccc1Cl)c1ccccc1F 2.31 µM [falling, partial curve, poor fit]

Lipid storage change, negative = inhibition, inconclusive:
CCn1c(CNc2ccc(F)cc2)nnc1SCC(=O)N1CCCc2ccccc21 6.33%
CCOC(=O)NC(=O)COC(=O)CNC(=O)c1cccc(OC)c1 -8.29%
CN(CCCCCCN(C)Cc1ccccc1O)Cc1ccccc1O -2.17%
CCOC(=O)C1(Cc2ccccc2C)CCCN(C(=O)CCc2cccnc2)C1 (centres undefined) 39.2%
O=C1c2ccccc2S(=O)(=O)N1CC1CC(c2ccccc2Cl)=NO1 (centres undefined) 9.89%
Nc1n[nH]c(N)c1N=Nc1ccc2c(c1)OCO2 -5.93%
O=C(CSc1ncn[nH]1)NCc1ccccc1Cl -100%
Cn1cc(P(=S)(N2CCOCC2)N2CCOCC2)cc1P(=S)(N1CCOCC1)N1CCOCC1 4.76%
N=c1n(CC(=O)c2cccs2)c2ccccc2n1Cc1ccccc1 -23.7%
COC(=O)Cn1ncc(N2CC(C)OC(C)C2)c(Cl)c1=O (centres undefined) -37.4%
CCOC(=O)C1CCN(C(=O)Cc2c(C(=O)O)n(C)c3ccccc23)CC1 -189%
CCc1ccc(OC(=O)Nc2ccccc2)cc1 7.03%
Cc1ccccc1C(=O)NC1CCN(Cc2nnnn2CCc2ccccc2)CC1 15.6%
Cc1cnc(C(=O)Nc2cc(F)ccc2C)cn1 18.9%
Cc1cc(C(=O)NC2CCCCC2)c(C)o1
COc1cc(C(=O)OCC(=O)Nc2cc(C)on2)ccc1OCc1ccccc1Cl 12.1%
COc1ccc(Oc2ccc(S(=O)(=O)N3CCCCC3)cc2S(=O)(=O)N2CCCCC2)cc1 33.7%
Cc1cc(C(=O)CSc2nnc(CCC(N)=O)n2C)c(C)n1C1CC1
COc1ccc(C(=O)Nc2ccc(C(=O)O)cc2NC(=O)c2ccc(OC)cc2)cc1 3.53%
CNC(=O)C12CC3CC(C1)CC(c1ccc(C)cc1)(C3)C2 -60%
CCn1c(P(C)(=O)O)nc2cc(NC(=O)c3ccccc3Cl)ccc21 47.8%
O=C(O)CCC(=O)Nc1cccc(C(=O)Nc2ccc(Br)cc2)c1 -5.92%
Cc1ccc(OCC(O)CNS(=O)(=O)c2ccccc2C(=O)O)cc1 (centres undefined) 10%
O=C(NCc1ccccc1)C1C(=O)N(Cc2ccccc2)C(=O)C1C1(O)CCCC1 (centres undefined) -31.2%
Cn1c(=O)c2c(SCC(=O)NC3CCCC3)nc(CC(C)(C)C)nc2n(C)c1=O -1.95%
OCCn1nc2c3ccccc3nc-2n(-c2ccccc2)c1=S 22.7%
CC(=O)c1cccc(S(=O)(=O)N(C)C2CCN(C)CC2)c1 -28.3%
Brc1ccc(-c2noc(-c3ccccc3)n2)o1 32.8%
CCCN1CCC(=O)N([C@H](CSc2ccccc2)CC(C)C)CC1 -6.87%
CC1(C)CC2CC(C)(CN2/C=N/c2sc3c(c2C#N)CC(C)(C)NC3(C)C)C1 (centres undefined) -10.8%
CCOc1ccc(NS(=O)(=O)c2ccc3[nH]cc(C(=O)NCCOC)c(=O)c3c2)cc1 -2.64%
CC(C)c1ccc(NC2CCCN(C(=O)c3ccsc3)C2)cc1 (centres undefined) -56.2%

Fetched by structure from the list above (3):
Lipid storage change, negative = inhibition, inconclusive:
O=C(NCc1ccccc1)C1C(=O)N(Cc2ccccc2)C(=O)C1C1(O)CCCC1 (centres undefined) -31.2%
Cc1ccccc1C(=O)NC1CCN(Cc2nnnn2CCc2ccccc2)CC1 15.6%
COc1ccc(C(=O)Nc2ccc(C(=O)O)cc2NC(=O)c2ccc(OC)cc2)cc1 3.53%
